Measurements published in patent US20230338431A1.
No constants are given. Whether binding was seen depends on the method and setting. Some entries that bind do so weakly or less than the wild type.

The chains behind the UniProt entries cited, without tags or fusion partners.
UniProt P16220: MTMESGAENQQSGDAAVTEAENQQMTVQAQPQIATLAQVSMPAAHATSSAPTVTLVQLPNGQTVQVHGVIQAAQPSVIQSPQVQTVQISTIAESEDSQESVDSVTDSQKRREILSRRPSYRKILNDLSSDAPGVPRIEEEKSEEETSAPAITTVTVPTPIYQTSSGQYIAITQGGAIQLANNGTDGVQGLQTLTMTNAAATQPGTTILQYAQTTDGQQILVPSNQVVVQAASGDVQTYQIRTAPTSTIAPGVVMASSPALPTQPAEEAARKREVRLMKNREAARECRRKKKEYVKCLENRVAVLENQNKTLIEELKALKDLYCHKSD
UniProt P31749: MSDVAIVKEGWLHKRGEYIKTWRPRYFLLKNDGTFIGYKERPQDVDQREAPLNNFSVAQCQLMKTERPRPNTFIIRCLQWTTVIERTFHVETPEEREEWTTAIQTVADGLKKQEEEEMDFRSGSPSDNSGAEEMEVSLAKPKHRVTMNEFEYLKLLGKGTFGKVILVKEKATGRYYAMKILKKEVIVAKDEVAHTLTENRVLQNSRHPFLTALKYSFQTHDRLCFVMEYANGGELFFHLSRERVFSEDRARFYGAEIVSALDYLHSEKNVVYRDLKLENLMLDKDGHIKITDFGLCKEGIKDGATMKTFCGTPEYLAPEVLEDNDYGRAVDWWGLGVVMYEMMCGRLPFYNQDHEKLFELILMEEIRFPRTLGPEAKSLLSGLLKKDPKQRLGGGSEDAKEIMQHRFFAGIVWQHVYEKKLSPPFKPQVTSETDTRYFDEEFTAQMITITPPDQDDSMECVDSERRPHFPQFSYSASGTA

Columns and labels:
[1] = target: cAMP response element-binding protein 1 (CREB1) (human (endogenous in hTS cells)) (UniProt P16220); assay: immunoprecipitation from lysates of bFGF-treated hTS cells, then immunoblot (FIG. 10I)
[2] = target: cAMP response element-binding protein 1 (CREB1) (human (endogenous in hTS cells)) (UniProt P16220); assay: immunoprecipitation from lysates of bFGF-treated hTS cells, then immunoblot (FIG. 8D)
[3] = target: cAMP response element-binding protein 1 (CREB1) (human (endogenous in hTS cells)) (UniProt P16220); assay: immunoprecipitation from lysates of bFGF-treated hTS cells, then immunoblot

Measured: binding

protein kinase B (AKT) subunit AKT1 (from UniProt P31749 1-480) (enzyme)
binds: [1] | [2] | [3]
